Results are given in words; binding and its absence hold for the method and conditions named. In cells and extracts the contact can be indirect. Some entries that bind do so weakly or less than the wild type.
How the values were obtained:
[1] = biological target: T1, SHARPIN (Shank-Interacting protein-like 1, SIPL1) (human (endogenous in MCF-7)) (UniProt Q9H0F6); experiment: co-IP; cytoplasmic and nuclear fractions (subcellular protein fractionation kit, Thermo Scientific 78840); Vinculin and Histone-3 as fraction controls
T1 sequence: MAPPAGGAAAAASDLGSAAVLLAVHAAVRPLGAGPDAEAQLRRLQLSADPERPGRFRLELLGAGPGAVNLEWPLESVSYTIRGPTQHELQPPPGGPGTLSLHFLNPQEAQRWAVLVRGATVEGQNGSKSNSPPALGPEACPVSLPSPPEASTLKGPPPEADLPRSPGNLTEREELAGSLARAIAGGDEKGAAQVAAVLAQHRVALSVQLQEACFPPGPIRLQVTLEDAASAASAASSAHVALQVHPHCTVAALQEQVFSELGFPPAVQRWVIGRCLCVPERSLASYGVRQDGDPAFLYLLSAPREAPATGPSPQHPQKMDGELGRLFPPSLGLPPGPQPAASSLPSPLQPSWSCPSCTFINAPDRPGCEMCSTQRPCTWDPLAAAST

Chains of the proteins cited; added tags and fusions are not shown.
UniProt P03372: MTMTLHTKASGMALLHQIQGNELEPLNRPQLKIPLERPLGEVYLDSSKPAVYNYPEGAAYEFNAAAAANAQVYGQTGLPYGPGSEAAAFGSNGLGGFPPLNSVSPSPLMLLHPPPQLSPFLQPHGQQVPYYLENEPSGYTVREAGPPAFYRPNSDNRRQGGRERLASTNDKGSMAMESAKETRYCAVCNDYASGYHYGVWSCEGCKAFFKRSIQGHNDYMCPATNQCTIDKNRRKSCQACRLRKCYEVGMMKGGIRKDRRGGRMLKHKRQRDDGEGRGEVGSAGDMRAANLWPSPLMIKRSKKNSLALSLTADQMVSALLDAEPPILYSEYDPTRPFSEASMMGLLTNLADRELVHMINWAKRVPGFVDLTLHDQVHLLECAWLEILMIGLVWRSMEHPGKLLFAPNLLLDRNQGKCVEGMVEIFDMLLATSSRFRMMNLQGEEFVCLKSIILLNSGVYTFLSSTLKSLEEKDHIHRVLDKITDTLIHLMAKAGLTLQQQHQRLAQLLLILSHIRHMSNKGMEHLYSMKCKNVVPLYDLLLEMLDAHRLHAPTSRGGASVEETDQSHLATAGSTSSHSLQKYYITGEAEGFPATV

[2] = biological target: T1, SHARPIN (Shank-Interacting protein-like 1, SIPL1) (human (endogenous in MCF-7)); experiment: co-IP; MCF7 cell lysate (100 ug) pre-cleared with rabbit IgG, incubated with SHARPIN antibody (AB69507) overnight; rabbit IgG as negative control; bound protein analysed with ERα antibody

Estrogen receptor α (from UniProt P03372 1-595)
binding [1]: binds | binding [2]: binds
